{"source": "PubChem BioAssay (NCATS)", "note": "Inconclusive means that the source gave no clear call. Such entries were picked first, then a sample of the others. Where the call is inconclusive, the potency comes from a doubtful curve fit. Active and inactive are the calls of the source. The call rests on the fitted dose curve; in most records, active means well fitted activation curve with a large enough effect; inconclusive means small, poorly fitted or top-dose-only effect, or another doubt; inactive means no such curve, though single readings can be large or run the other way. Potency means the concentration at half of the fitted maximal effect."}
{"target": "Rap guanine nucleotide exchange factor 3 (Homo sapiens) (UniProt O95398)", "experiment": "Counterscreen qHTS for agonist of cAMP-regulated guanine nucleotide exchange factor 3 (EPAC1) (AID 1645889); further: nearly all actives have a fitted effect of over 40% in size; on activation: % of control where 0% means no effect", "conditions": "EPAC1 Rap1B-BODIPY-GDP exchange, fluorescence; activation: at 154 µM (top of the series) unless noted", "procedure,_shortened": "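Rap1B-BODIPY-GDP 250 nM + GDP 50 uM; cpds 7-pt, final 9.74 nM–152 uM (activator mode) or from 7.32 nM upwards (inhibitor mode); RT; FI 480/540 nm at 5 and 30 min, then ± cAMP, reread.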"}
{"smiles": "O=C1c2cc(O)c(O)cc2OC(c2ccc(O)c(O)c2)C1O", "note": "(stereo not drawn)", "activation": "inactive: 19.1%"}
{"smiles": "CCOc1cccc(CNc2ccc(O)cc2)c1OCc1ccc(Cl)cc1Cl", "Potency": "inconclusive: 14.1 µM [activator, full curve, poor fit]"}
{"smiles": "O=C(CSc1nnc(-c2cnccn2)n1Cc1ccco1)c1ccc(Cl)cc1", "activation": "inconclusive: 26.7% [activator]"}
{"smiles": "CCN(CC)c1ccc(/C=C2/C(=O)c3ccc(C(=O)O)cc3C2=O)cc1", "activation": "inactive: 9.24% [at 30.8 µM]"}
{"smiles": "O=C(O)c1[nH]c2ccccc2c1C(c1cc(Cl)cc([N+](=O)[O-])c1O)c1c(C(=O)O)[nH]c2ccccc12", "activation": "inconclusive: 10.6% [activator]"}
{"smiles": "Cc1ccc(Cl)c2c1N[C@@H](c1ccc(C(=O)O)cc1)[C@H]1CC=C[C@@H]21", "activation": "inconclusive: 38.2% [activator]"}
{"smiles": "Cc1ccc(NC(=O)c2c(NC(=O)C(F)(F)F)sc3c2CCCCC3)cc1", "Potency": "inconclusive: 44.7 µM [activator, partial curve]"}
{"smiles": "O=c1cc(O)c2sc3nc(-c4cccnc4)cc(C(F)(F)F)c3c2[nH]1", "activation": "inconclusive: 37.3% [activator]"}
